Our source for the binding signal values is paper PMC7819943, “Rice protein-binding microarrays: a tool to detect cis-acting elements near promoter regions in rice”.

Chains of the proteins cited; added tags and fusions are not shown.
UniProt Q0JBA9, entry or part of it: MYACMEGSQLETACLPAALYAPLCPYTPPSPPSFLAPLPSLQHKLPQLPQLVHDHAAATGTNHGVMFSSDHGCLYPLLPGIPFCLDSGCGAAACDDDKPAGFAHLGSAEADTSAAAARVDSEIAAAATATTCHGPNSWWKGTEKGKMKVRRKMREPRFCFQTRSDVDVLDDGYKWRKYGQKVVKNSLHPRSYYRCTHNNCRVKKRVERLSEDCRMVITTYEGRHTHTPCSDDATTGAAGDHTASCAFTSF

This is one part of the list.

The assay addresses OsWRKY34 (Oryza sativa, UniProt Q0JBA9 1-250). Briefly: protein-binding microarray (RPBM); PBS, 2% BSA, 51.3 ng/ul salmon testes DNA, 50 uM zinc acetate, 200 nM TF, 25 C, 1 h; high values mean tight binding. Particulars: protein: recombinant; tags: N-terminal polyhistidine and DsRed monomer fusion (pET32a); label: CyDye5-dUTP incorporated in the synthesized complementary strand; 3' TTTTT single-stranded linker to array surface; dsDNA, one strand shown. In short, it runs like this:
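For the binding signal, per-feature fluorescence intensity was read in arbitrary units on an Axon 4000B scanner. Before scanning, a 2% BSA-blocked custom Agilent array made double-stranded with Cy5-dUTP was washed after 1 h at 25 °C with 200 nM protein and 50 µM zinc acetate. The proteins were Ni–NTA-purified transcription factors with N-terminal polyhistidine and DsRed fusions, expressed in E. coli BL21-CodonPlus.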
In the case of “TGGCATGTTTCTCCTTTACGCGTTTTAAGCTTTCCATCGACGGAGTCACCTAGTGCAG”, the binding signal is 12900 fluorescence intensity (a.u.).

In the case of “AGCAAGTCATCCACATCGTTGCTCATACTTGTTGTTCACGCGGAGTCACCTAGTGCAG”, the binding signal is 8410 fluorescence intensity (a.u.).

For “CACTGTCATCCACTCGACCTGCCACGACACCCGCCACCGCCGGAGTCACCTAGTGCAG”, the binding signal is 8690 fluorescence intensity (a.u.).

As for “GAAATCACACCTCGTCGCAGCCAAGATCTCCTCCAGTCCACGGAGTCACCTAGTGCAG”, the binding signal is 9670 fluorescence intensity (a.u.).

As for “TCGGATGGTTGTCAGGTTGGTTGAAGCTAGTTTCTAATTACGGAGTCACCTAGTGCAG”, the binding signal was 11300 fluorescence intensity (a.u.).

Take “CTGCTGCAGTTGAGCTGTACTGTTTTGGTGGGTTGGTTTTCGGAGTCACCTAGTGCAG”: the binding signal is 13900 fluorescence intensity (a.u.).

Take “TGGATGTATGGGATGGCACGGGGCGAATGAATTCGCATTCCGGAGTCACCTAGTGCAG”: the binding signal was 9340 fluorescence intensity (a.u.).

As for “ATGTTTGGGTGGGTCGCCAGGGCCGATGATCACAACTCTCCGGAGTCACCTAGTGCAG”, the binding signal is 9100 fluorescence intensity (a.u.).

With “AACTACTACACACCGGATCAGGCTTCTCCACCTTCCAAATCGGAGTCACCTAGTGCAG”, the binding signal is 8280 fluorescence intensity (a.u.).

For the sequence “AAAGCGGACGTCATCATTCATCCTCGAGCCCCTCAACTGGCGGAGTCACCTAGTGCAG”, the binding signal is 9960 fluorescence intensity (a.u.).

Turning to “ATTTTCGATATTGTTTTTCGTTTAACATTTATATCCAATTCGGAGTCACCTAGTGCAG”, the binding signal is 10800 fluorescence intensity (a.u.).

For the sequence “CCCTCAATGTGTGGTTAGGGTTTGGCTCCATGGATGACTCCGGAGTCACCTAGTGCAG”, the binding signal was 10400 fluorescence intensity (a.u.).

As to “CAGTACGCTACTATTCATACGCTGAATTTGTCTTTTTATACGGAGTCACCTAGTGCAG”, the binding signal is 9120 fluorescence intensity (a.u.).

As for “GCTGTATGCCTTTATTAATATGTATGCTATATTTACTGTTCGGAGTCACCTAGTGCAG”, the binding signal is 9060 fluorescence intensity (a.u.).

Turning to “AGGGAGCAGGGTGGGCGTGTCTTCGTACATTGTTGCCAGGCGGAGTCACCTAGTGCAG”, the binding signal is 10400 fluorescence intensity (a.u.).

For the sequence “CGTTCACAACTCACTGGGGTCTGGGCTTAATAATCTTCTTCGGAGTCACCTAGTGCAG”, the binding signal is 12800 fluorescence intensity (a.u.).

For the sequence “TCATCATCGTCTGGGCTGCCATGTCATTCAACTCCCTCTACGGAGTCACCTAGTGCAG”, the binding signal is 11000 fluorescence intensity (a.u.).

On to “ATGCATCTTATTTCTTTCTAGAATGCTCTGCTACATAGTACGGAGTCACCTAGTGCAG”, for which the binding signal was 8250 fluorescence intensity (a.u.).

Take “GATCCGGCTCATTTCAGCCTCACACCCAGCAACACTTCGCCGGAGTCACCTAGTGCAG”: the binding signal was 8780 fluorescence intensity (a.u.).

As to “AAAATCAAAACGCTACCACAGCCACACTCTCACACACACACGGAGTCACCTAGTGCAG”, the binding signal was 9150 fluorescence intensity (a.u.).

On to “ATTAGATGTTTGTTTTCTTTTCTTAGTCAAACTTCTTTTACGGAGTCACCTAGTGCAG”, for which the binding signal was 8830 fluorescence intensity (a.u.).

Take “TGTTCTTGCGCCGGTAAAGTCGCCGACGGGGAGGGGTAAACGGAGTCACCTAGTGCAG”: the binding signal is 11600 fluorescence intensity (a.u.).

With “TGTAAATTTCCCGGCGGCTTCTCGCATCTCGTTCATCGTCCGGAGTCACCTAGTGCAG”, the binding signal was 8090 fluorescence intensity (a.u.).

With “GATTCCAGCCAATTGACTGTGTTCCTTGATGATTATACCACGGAGTCACCTAGTGCAG”, the binding signal was 9470 fluorescence intensity (a.u.).

Turning to “TTAATCTTCACGCGTTTGCTTACTCCTATATATATATGTACGGAGTCACCTAGTGCAG”, the binding signal is 9730 fluorescence intensity (a.u.).

As to “GTGTTATGAGTTGTGCCACCGTCTTCTCTCCCGTATAATCCGGAGTCACCTAGTGCAG”, the binding signal was 9390 fluorescence intensity (a.u.).

Turning to “TCAATGTCATCTCTAACCTTTTTTTCCCTACACAGAATGTCGGAGTCACCTAGTGCAG”, the binding signal is 8410 fluorescence intensity (a.u.).

As to “GGGTTCGGCTTGCCACTCATGGTGACAAAGCTGCCATGAGCGGAGTCACCTAGTGCAG”, the binding signal is 8420 fluorescence intensity (a.u.).

On to “GCGCCAGCATCGCCGTGCTTGTAATCTTCATCTTAATTACCGGAGTCACCTAGTGCAG”, for which the binding signal was 8400 fluorescence intensity (a.u.).

Regarding “GAACTGGCATAAGTTGTTTCCTTTTTTCCACCCCTTTTTACGGAGTCACCTAGTGCAG”, the binding signal is 9240 fluorescence intensity (a.u.).

Regarding “TCCGCTGGTTGGTATCCTACTAATTCTGTCCTACACGTTTCGGAGTCACCTAGTGCAG”, the binding signal was 9300 fluorescence intensity (a.u.).

Take “TAATATGAGCTACAGCTGTGTTGGGGCGCTTTTTTTCTTTCGGAGTCACCTAGTGCAG”: the binding signal was 8870 fluorescence intensity (a.u.).

For the sequence “CGCTCATCGGCCTTTGTCACCCTGCCGCCCTCTACGAGGGCGGAGTCACCTAGTGCAG”, the binding signal was 10400 fluorescence intensity (a.u.).

Turning to “ATCCTCTGTTTTTTCATTCCTACGATTCAAAGGGGCCCTTCGGAGTCACCTAGTGCAG”, the binding signal was 10600 fluorescence intensity (a.u.).

Take “AAGGAGGAGCAAGGATTGTTGTTGTTTCGCTGTCAGATCGCGGAGTCACCTAGTGCAG”: the binding signal was 9840 fluorescence intensity (a.u.).

With “ACGCTCATCCCTTCTTCCACCCTTTCCTTCCCCTCCTCCGCGGAGTCACCTAGTGCAG”, the binding signal is 8250 fluorescence intensity (a.u.).

For “ATCTCACCAAGGATTTCTTCTATAGCTACACATACCCCATCGGAGTCACCTAGTGCAG”, the binding signal is 8880 fluorescence intensity (a.u.).

Consider “TAGGGATGGATGAGGACTGCCGTTTTTGTGAAAGTTTGGGCGGAGTCACCTAGTGCAG”, for which the binding signal is 8140 fluorescence intensity (a.u.).

As to “TCTTGGCGATTTGTCTGGTTCTGCCTGCTCTTGCTGGTTTCGGAGTCACCTAGTGCAG”, the binding signal is 12300 fluorescence intensity (a.u.).

“CTTTTGGGTAATCCTGTTGTTGGGTTCTATGGGCCCTGGCCGGAGTCACCTAGTGCAG”: the binding signal is 9680 fluorescence intensity (a.u.).

“GACACCCATCCATCCGCCTCCTGCCTGCGCCGTCGGCCGACGGAGTCACCTAGTGCAG”: the binding signal was 12000 fluorescence intensity (a.u.).

Turning to “GCATTCCTCAATTTTTCAACGACGTTTGTCAGTTTGCGACCGGAGTCACCTAGTGCAG”, the binding signal is 8400 fluorescence intensity (a.u.).
